Experimental findings from US20220339289A1 (Bicycle, published 2022) are described below.

Protein sequences, listed by entry. Tags and fused reporters are not part of them. Residues count along the entry.
UniProt P16109, residues 42-771: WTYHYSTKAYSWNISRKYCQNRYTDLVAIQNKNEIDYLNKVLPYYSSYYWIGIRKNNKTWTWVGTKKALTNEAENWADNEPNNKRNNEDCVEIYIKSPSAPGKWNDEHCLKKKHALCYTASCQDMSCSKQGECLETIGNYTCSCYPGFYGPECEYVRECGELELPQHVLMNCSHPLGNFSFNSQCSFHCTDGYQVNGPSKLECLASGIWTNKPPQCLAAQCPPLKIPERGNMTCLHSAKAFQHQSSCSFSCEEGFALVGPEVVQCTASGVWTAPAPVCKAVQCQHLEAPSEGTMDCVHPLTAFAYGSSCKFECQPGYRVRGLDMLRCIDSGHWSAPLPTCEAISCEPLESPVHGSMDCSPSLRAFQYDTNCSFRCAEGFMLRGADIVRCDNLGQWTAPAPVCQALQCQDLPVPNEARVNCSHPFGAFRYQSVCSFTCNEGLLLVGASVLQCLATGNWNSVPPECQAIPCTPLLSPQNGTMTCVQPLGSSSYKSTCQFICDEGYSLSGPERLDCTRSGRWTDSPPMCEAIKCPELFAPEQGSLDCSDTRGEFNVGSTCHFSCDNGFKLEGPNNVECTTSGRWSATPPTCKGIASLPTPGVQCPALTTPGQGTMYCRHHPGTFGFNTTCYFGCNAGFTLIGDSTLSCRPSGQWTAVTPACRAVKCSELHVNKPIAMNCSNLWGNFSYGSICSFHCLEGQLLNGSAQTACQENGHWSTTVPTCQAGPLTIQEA

For this test, the target named is Recombinant biotinylated human P-Selectin protein (human) (UniProt P16109). Nature of the test: SPR (Table 6).

These are yes or no findings as the source states them, for the method shown. Some binding calls cover weakened binding; strength is not graded here.

For the molecule ACDADWCDVPSLPCA (Ci, Cii and Ciii cyclised on the TCAZ scaffold) [BCY11648], the binding result was “binds”.

With CYMEWCDVTDYGC (N-terminal acetyl (Ac); Ci, Cii and Ciii cyclised on the TATA scaffold) [BCY9717], the binding entry is given as “binds”.
